According to PubChem BioAssay AID1347076 (National Center for Advancing Translational Sciences (NCATS), 2019):
Several values for one entry are separate records, joined by “and”; a condition that tells them apart may be missing. Equal values may be shown once. Hit rate of the full screen: of about 400,000 compounds, about 13,000 (3.2%) were called active. Inconclusive results, whose numbers are uncertain, are shown with a selection of clear calls. The call rests on the fitted dose curve; in most records, active means well fitted cell-killing curve with a large enough effect; inconclusive means small, poorly fitted or top-dose-only effect, or effect the other way; inactive means flat fitted curve, though single readings scatter. Where the call is inconclusive, the potency comes from a doubtful curve fit.

Assay: qHTS assay for MDR1-selective chemotherapeutics: Primary screen using the drug-selected MDR subline cells KB-V1; further: nearly all actives have a fitted effect of over 60% in size
Conditions: KB-V1 MDR cells viability, CellTiter-Glo, 72 h; activity change, negative = cytotoxicity: at 46.1 µM (top of the series)
How it was run: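 Cytotoxicity via CellTiter-Glo luminescence after 72 h compound exposure at 37 degrees C. Cells: drug-selected KB-V1 line, DMEM phenol-red free plus 10% FBS. Compounds tested at multiple concentrations; normalized data fitted to concentration-effect curves.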
On the % scale 0 is the no-effect control and ±100 the full control effect; potency means the concentration at half of the fitted maximal effect.

Structure (SMILES) | Potency | activity change, negative = cytotoxicity
Cc1nc(N2CCN(C(=O)c3ccco3)CC2)c2c3c(sc2n1)CCCC3 | active: 20.6 µM | –
COc1ccc(C2=NOC(C(=O)Nc3cc(Br)ccc3O)C2)cc1OC (configuration not stated) | inconclusive: 20.6 µM [cytotoxic, single point] | –
CCSc1nc2c([nH]c3ccccc32)c(=O)n1-c1ccc(F)cc1 | inconclusive: 0.0146 µM [rising, full curve] | –
CCCCCCCCCCCC[n+]1ccc(/C=C/c2c[nH]c3ccccc23)c2ccccc21 | – | inactive: -26.6%
O=C(c1ccccc1)N(Nc1ccccc1)c1ccccc1 | inconclusive: 14.6 µM [cytotoxic, single point] | –
Cc1ccccc1NS(=O)(=O)c1ccc(C(=O)NCC(c2ccccc2)N(C)C)cc1 (configuration not stated) | inconclusive: 23.1 µM [cytotoxic, single point] | –
COCCOC(=O)c1[nH]c2c(c1C)C(=O)CC(c1ccco1)C2 (configuration not stated) | active: 1.16 µM | –
COc1ccc(NC(=O)c2ccc(NC(=O)CN3CCC(C(N)=O)CC3)cc2)cc1 | inconclusive: 14.6 µM [rising, partial curve] | –
CCOC(=O)/C=C/C(=O)OCC(=O)Nc1c(Cl)cccc1Cl | – | inactive: 31.8%
O=C1Cc2ccccc2C(=O)N1Cc1ccccc1 | – | inconclusive: 32.3%
Cc1ccc(-c2cnc3c(c2)C(=O)N([C@H](C)CO)C[C@H](C)[C@@H](CN(C)Cc2ccccc2F)O3)cc1 | – | inactive: 22.5%
CCCCNC(=S)N(C)/N=C/c1ccc(F)cc1 | – | inactive: -5.29%
COc1ccc(Cn2nnnc2C(c2ccccc2OC)N2CCC(C(N)=O)CC2)cc1 (configuration not stated) | inconclusive: 9.2 µM [rising, partial curve] | –
Cc1ccc(C)c(NS(=O)(=O)c2ccc(OCC(=O)NCc3ccco3)cc2)c1 | inconclusive: 29.1 µM [cytotoxic, single point] | –
Cc1cc(C)c2c(N)c(C(=O)N/N=C/c3cccnc3)sc2n1 | – | inactive: -21.6%
O=C(Nc1ccc2c(c1)OCO2)N1CCN(C/C=C/c2ccccc2)CC1 | active: 20.6 µM | –
Cc1ccc(OCCSc2nc3ccc(NC(=O)c4ccc(F)cc4)cc3s2)cc1 | – | inactive: 7.31%
Cc1nc2ccccn2c1C(=O)N/N=C/c1cc(C)n(-c2ccc(Br)cc2)c1C | inconclusive: 29.1 µM [cytotoxic, single point] | –
Clc1cccc(CNc2ccn3nc(-c4ccccc4Cl)cc3n2)c1 | – | inactive: -15%
Nc1c2ccccc2nc2ccccc12 | active: 2.06 µM and inconclusive: 2.91 µM [cytotoxic, full curve, poor fit] | –
Cc1cccc(-n2ncc3c(NC(C)C)ncnc32)c1 | – | inactive: -24%
CC(C)C(=O)Nc1cccc(-c2cnc3ccccc3n2)c1 | active: 13 µM | –
Cc1ccc(NC(=O)c2nc[nH]c2C(=O)N[C@H](C)c2ccccc2)cc1 | inconclusive: 29.1 µM [cytotoxic, partial curve, poor fit] | –
CC/C(=N\NS(=O)(=O)c1ccc(C)cc1)c1ccco1 | – | inactive: 0.61%

Structure (SMILES) | Potency | activity change, negative = cytotoxicity
COc1cc(C(=O)N2CCN(C/C=C/c3ccccc3)CC2)cc(OC)c1OC | inconclusive: 9.2 µM [cytotoxic, partial curve, poor fit] | –
Cc1ccc(NC(=S)/C(C#N)=C2/Nc3ccccc3S2)cc1 | – | inactive: -23%
Cc1cc(Cl)ccc1NC(=S)N1CCN(Cc2ccc3c(c2)OCO3)CC1 | – | inactive: -1.25%
CC1CCN(C(=O)c2[nH]cnc2C(=O)Nc2ccccc2F)CC1 | inconclusive: 18.4 µM [cytotoxic, single point] | –
COc1ccc(-n2cnc(N)c2C(=O)c2cccc([N+](=O)[O-])c2)cc1 | – | inactive: -0.548%
Cc1ccc2c(c1)C1C=CCC1C(C(=O)NCCCN1CCOCC1)N2 (configuration not stated) | inconclusive: 3.26 µM [rising, full curve, poor fit] | –
Cc1ccccc1N1C(=O)CC(N(O)c2ccccc2)C1=O (configuration not stated) | – | inactive: 7.1%
COc1ccccc1NS(=O)(=O)c1cc(C(=O)NCC(c2ccco2)N2CCCCC2)ccc1C (configuration not stated) | inconclusive: 5.17 µM [cytotoxic, partial curve, poor fit] | –
O=C(CNC(=O)c1ccco1)N/N=C/c1cc(Br)ccc1O | inconclusive: 16.4 µM [cytotoxic, partial curve] | –
O=C(CCSc1nc(-c2ccccc2)c(-c2ccccc2)o1)N1CCCCC1 | inconclusive: 16.4 µM [cytotoxic, partial curve, poor fit] | –
CN1CCN(c2ccc(CNC[C@H]3O[C@@H](n4cnc5c(=O)[nH]c(N)nc54)[C@H](O)[C@@H]3O)c(F)c2)CC1 | – | inactive: 0%
Cc1c(Cl)cccc1Nc1nc2ccc(C(=O)c3ccccc3)cc2n2cnnc12 | – | inactive: 2.33%
CCCc1cc(=O)c2c(O)ccc(OC)c2o1 | – | inactive: -4.31%
CCOc1ccc(S(=O)(=O)N2CCN(c3ccc(OC)cc3)CC2)c2cccnc12 | inconclusive: 23.1 µM [cytotoxic, single point] | –
O[C@H]1CN(Cc2cccs2)[C@@H](c2ccccc2)C[C@@H]1n1cc(-c2ccc(F)cc2)nn1 | – | inactive: 0%
CC1CN(C(=O)N2CCC(C(=O)NCCCc3ccccc3)CC2)c2ccccc2O1 (configuration not stated) | – | inactive: -2.44%
Oc1nc(Nc2ccc(Cl)cc2Cl)sc1/C=C1\C=Nc2ccccc21 | inconclusive: 29.1 µM [cytotoxic, single point] | –
COc1ccc(CNC(=O)CN2C(=O)CC(c3ccccc3)=Nc3ccccc32)cc1 | inconclusive: 2.31 µM [cytotoxic, full curve] | –
Cc1c(NC(=O)CSc2ncnc3c2cnn3-c2ccccc2)c(=O)n(-c2ccccc2)n1C | inconclusive: 16.4 µM [cytotoxic, single point] | –
COc1cc(CCC(=O)OCC(=O)NC(=O)c2ccc(Cl)cc2)cc(OC)c1OC | inconclusive: 1.03 µM [rising, full curve, poor fit] | –
CC(=O)N1CCc2c(sc3c2c(=O)n(Cc2ccccc2)c(=O)n3Cc2cc(C)ccc2C)C1 | – | inactive: 27.3%
CSc1nc2ccc(NC(=O)c3ccc(Cl)s3)cc2s1 | inconclusive: 3.66 µM [rising, full curve, poor fit] | –
CCN(c1ccccc1)S(=O)(=O)c1ccc(C(=O)N2CCCC(C(F)(F)F)C2)cc1 (configuration not stated) | inconclusive: 7.31 µM [cytotoxic, partial curve] | –
CCOc1ccc(Nc2oc(/C=C/c3cccc(OC)c3)nc2C#N)cc1 | – | inactive: -15%

Another view of 15 compounds above:
Structure (SMILES),Potency,"activity change, negative = cytotoxicity"
Nc1c2ccccc2nc2ccccc12,"active: 2.06 µM and inconclusive: 2.91 µM [cytotoxic, full curve, poor fit]",–
Cc1cccc(-n2ncc3c(NC(C)C)ncnc32)c1,–,inactive: -24%
CC(C)C(=O)Nc1cccc(-c2cnc3ccccc3n2)c1,active: 13 µM,–
Cc1ccc(NC(=O)c2nc[nH]c2C(=O)N[C@H](C)c2ccccc2)cc1,"inconclusive: 29.1 µM [cytotoxic, partial curve, poor fit]",–
CC/C(=N\NS(=O)(=O)c1ccc(C)cc1)c1ccco1,–,inactive: 0.61%
COc1cc(C(=O)N2CCN(C/C=C/c3ccccc3)CC2)cc(OC)c1OC,"inconclusive: 9.2 µM [cytotoxic, partial curve, poor fit]",–
Cc1ccc(NC(=S)/C(C#N)=C2/Nc3ccccc3S2)cc1,–,inactive: -23%
Cc1cc(Cl)ccc1NC(=S)N1CCN(Cc2ccc3c(c2)OCO3)CC1,–,inactive: -1.25%
CC1CCN(C(=O)c2[nH]cnc2C(=O)Nc2ccccc2F)CC1,"inconclusive: 18.4 µM [cytotoxic, single point]",–
COc1ccc(-n2cnc(N)c2C(=O)c2cccc([N+](=O)[O-])c2)cc1,–,inactive: -0.548%
Cc1ccc2c(c1)C1C=CCC1C(C(=O)NCCCN1CCOCC1)N2 (configuration not stated),"inconclusive: 3.26 µM [rising, full curve, poor fit]",–
Cc1ccccc1N1C(=O)CC(N(O)c2ccccc2)C1=O (configuration not stated),–,inactive: 7.1%
COc1ccccc1NS(=O)(=O)c1cc(C(=O)NCC(c2ccco2)N2CCCCC2)ccc1C (configuration not stated),"inconclusive: 5.17 µM [cytotoxic, partial curve, poor fit]",–
O=C(CNC(=O)c1ccco1)N/N=C/c1cc(Br)ccc1O,"inconclusive: 16.4 µM [cytotoxic, partial curve]",–
O=C(CCSc1nc(-c2ccccc2)c(-c2ccccc2)o1)N1CCCCC1,"inconclusive: 16.4 µM [cytotoxic, partial curve, poor fit]",–

More records:

Structure (SMILES) | Potency | activity change, negative = cytotoxicity
CC1C(=O)C(C)C(c2ccc3c(c2)OCO3)NC1c1ccc2c(c1)OCO2 (configuration not stated) | inconclusive: 32.6 µM [cytotoxic, single point] | –
CC(CCc1ccccc1)NC(=O)C1CCN(S(=O)(=O)N2CCOCC2)CC1 (configuration not stated) | active: 20.6 µM | –
Cc1ccc2nc(/C=C/c3ccc(N(C)C)cc3)ccc2c1 | inconclusive: 16.4 µM [cytotoxic, single point] | –
CCc1cc(-c2nnn(CCC3COCCO3)c2CC)cc(CC)c1-c1cn(Cc2ccc3ccccc3c2)nn1 (configuration not stated) | active: 5.8 µM | –
Cc1ccc(C)c(S(=O)(=O)Nc2ccc(C(=O)N3CCC3)cc2)c1 | inconclusive: 25.9 µM [cytotoxic, single point] | –
Cc1cc(C)nc(N2CCC(C(=O)NCCc3ccc(F)cc3)CC2)n1 | active: 13 µM | –
Cc1nn(CC#N)c(=O)n1-c1ccccc1F | – | inactive: 11.1%
Cc1ccc(-c2nc3ccc(C)cn3c2Cc2cccc(Cl)c2)cc1 | inconclusive: 20.6 µM [cytotoxic, single point] | –
CCCCCn1c(CCNC(=O)c2cccc(C)c2)nc2ccccc21 | inconclusive: 29.1 µM [cytotoxic, single point] | –
COc1ccc(-c2csc(NC(=O)CS(=O)(=O)c3ccc(F)cc3)n2)cc1OC | – | inactive: -9.35%
Cc1sc(NC(=O)c2ccco2)c(CN2CCN(Cc3ccccc3)CC2)c1C | inconclusive: 9.2 µM [cytotoxic, partial curve] | –
Cc1ccc(S(=O)(=O)N2C3CCCCC3O[C@H]2CC(=O)c2cccc3ccccc23)cc1 (some centres not stated) | – | inactive: -17.4%
CCC(CC)C(=O)Nc1cccc(C(=O)Nc2nccs2)c1 | inconclusive: 14.1 µM [cytotoxic, single point] | –
Cc1ccc([C@H]2C[C@@H](O)[C@H](n3cc(-c4ccc(F)cc4)nn3)CN2C(=O)C2CCCCC2)cc1 | inconclusive: 29.1 µM [cytotoxic, single point] | –
C/C(=N\NC(=O)COc1ccccc1[N+](=O)[O-])c1cccs1 | inconclusive: 16.4 µM [cytotoxic, single point] | –
Brc1cccc(-c2nnc(-c3ccccc3)o2)c1 | – | inactive: -1.91%
O=C(CNC(=O)c1ccc(S(=O)(=O)N2CCCC2)cc1)N/N=C/c1ccc(Cl)cc1Cl | inconclusive: 18.4 µM [cytotoxic, single point] | –
CN1CCN(C(=S)NC(=O)c2cccc(S(=O)(=O)N(C)C)c2)CC1 | inconclusive: 20.6 µM [rising, single point] | –
O=C(Nc1cc(-c2ccccc2)[nH]n1)c1ccccc1F | inconclusive: 29.1 µM [cytotoxic, single point] | –
Cc1ccc(CNS(=O)(=O)c2cc3c(cc2Cl)NC(=O)CO3)o1 | – | inactive: -0.727%
Cc1cc(C)c(C(O)c2ncc(-c3cccc(F)c3)[nH]2)c(C)c1 (configuration not stated) | – | inactive: -22.8%
N#Cc1ccc(NC(=S)NC(=O)CCc2ccc(S(=O)(=O)N3CCOCC3)cc2)cc1 | inconclusive: 18.4 µM [cytotoxic, single point] | –
COc1ccc(C(C)(C)C)cc1NC(=O)CCn1[nH]c(=O)ccc1=O | inconclusive: 23.1 µM [rising, single point] | –
COC1C(CO)OC(n2c3c(Cl)cccc3c3c4c(c5c6cccc(Cl)c6[nH]c5c32)C(=O)NC4=O)C(O)C1O (configuration not stated) | – | inactive: -17.4%
